We go through three molecules from PMC7864068, “α2-Macroglobulin-like protein 1 can conjugate and inhibit proteases through their hydroxyl groups, because of an enhanced reactivity of its thiol ester” (The Journal of Biological Chemistry, 2021).

The chains behind the UniProt entries cited, without tags or fusion partners. Residues count along the entry.
UniProt P0C1U8, residues 69-336: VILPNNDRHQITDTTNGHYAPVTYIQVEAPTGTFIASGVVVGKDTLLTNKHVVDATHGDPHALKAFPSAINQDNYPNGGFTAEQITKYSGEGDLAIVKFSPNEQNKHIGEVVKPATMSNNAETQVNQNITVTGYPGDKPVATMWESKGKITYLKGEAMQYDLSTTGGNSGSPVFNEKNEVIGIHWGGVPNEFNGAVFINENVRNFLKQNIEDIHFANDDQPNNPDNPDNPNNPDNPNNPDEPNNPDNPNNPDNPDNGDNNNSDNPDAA

Changes are numbered by the printed parent chain. Names may count otherwise. Results are given in words; binding and its absence hold for the method and conditions named. Some results given as binding are weak or reduced against the parent protein; the word gives no strength.

For experiment [1], the target named is T1, Thermolysin from Geobacillus stearothermophilus, unmodified (Geobacillus stearothermophilus) (UniProt P00800).
T1 sequence: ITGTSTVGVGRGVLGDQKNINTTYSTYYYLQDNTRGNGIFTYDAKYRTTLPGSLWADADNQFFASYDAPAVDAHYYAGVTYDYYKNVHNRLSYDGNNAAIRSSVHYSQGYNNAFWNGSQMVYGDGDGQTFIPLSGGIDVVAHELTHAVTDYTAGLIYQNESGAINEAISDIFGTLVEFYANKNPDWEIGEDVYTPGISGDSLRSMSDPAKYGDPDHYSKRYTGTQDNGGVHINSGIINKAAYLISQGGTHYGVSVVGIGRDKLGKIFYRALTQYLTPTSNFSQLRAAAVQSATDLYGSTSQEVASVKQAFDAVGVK
Kind of experiment: LC-MS/MS of crosslinked peptides from the pepsin-digested conjugation product band; the ∼150-kDa band (band 1) of WT A2ML1 with thermolysin or acetylated thermolysin digested in gel with pepsin at pH 3; HCD and EThcD MS2; Byonic search, assignments judged by hand; both purified.

For the next experiment, the target named is T2, Cathepsin G (CatG) (UniProt P08311).
T2 sequence: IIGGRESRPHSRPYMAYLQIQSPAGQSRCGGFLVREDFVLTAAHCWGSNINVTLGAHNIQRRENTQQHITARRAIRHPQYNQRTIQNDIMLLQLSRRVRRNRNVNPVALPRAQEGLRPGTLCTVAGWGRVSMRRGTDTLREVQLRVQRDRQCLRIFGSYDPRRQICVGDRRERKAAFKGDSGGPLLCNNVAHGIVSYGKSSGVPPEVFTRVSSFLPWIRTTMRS
The experiment is described as follows: reducing SDS-PAGE of covalent conjugation products + Edman degradation and LC-MS/MS of bands; A2ML1 digested with HNE, CatG (up to 1:1 molar ratio protease:A2ML1, HBS with and without 50 mM BAPN, 15 min 37°C, stopped with 2 mM PMSF) or GluC (conditions not told); Fig. S2; both purified.

The target of experiment [2] is Streptococcus aureus glutamyl endoprotease, GluC (Streptococcus aureus (so in the source)) (UniProt P0C1U8). The description is as above.
In experiment [3] the target is T3, Cy5-labeled thermolysin (Geobacillus stearothermophilus) (UniProt P00800).
T3 sequence (chain, Cy5 (mono NHS ester), about 0.6,1 molar ratio of Cy5 to thermolysin): T1 sequence
The experiment is described as follows: reducing SDS-PAGE of covalent conjugation products with Cy5 fluorescence; A2ML1 digested with Cy5-labeled thermolysin or Cy5-labeled acetylated thermolysin at pH 5, 6 or 7 in 50 mM sodium acetate, 137 mM NaCl, 5 mM CaCl2; molar ratio protease:A2ML1 1:2 (methods) or 1:1; both ….

Experiment [4] addresses T1, Thermolysin from Geobacillus stearothermophilus, unmodified (Geobacillus stearothermophilus). The experiment is described as follows: reducing SDS-PAGE of covalent conjugation products + LC-MS/MS of in-gel digested bands; A2ML1 digested with thermolysin or acetylated thermolysin at up to 1:1 molar ratio protease:A2ML1, HBS (20 mM HEPES, 150 mM NaCl, pH 7.4) with 5 mM CaCl2, with and without 50 mM BAPN, 15 min 37°C, stopped with 10 mM EDTA; both purified.

Experiment [5] has the same target. Described as above. The source holds these as a separate data set.
The target of experiment [6] is T3, Cy5-labeled thermolysin (Geobacillus stearothermophilus). Kind of experiment: reducing SDS-PAGE of covalent conjugation products with Cy5 fluorescence; plasma-purified A2M or A2M N1088H cleaved with Cy5-labeled thermolysin or Cy5-labeled acetylated thermolysin; Coomassie and Cy5 fluorescence images; both purified.

B1: Human α2-macroglobulin-like protein 1 (A2ML1), recombinant wild type (natural protein, UniProt A8K2U0-1 18-1454, looked up)
chain: EELPNYLVTLPARLNFPSVQKVCLDLSPGYSDVKFTVTLETKDKTQKLLEYSGLKKRHLHCISFLVPPPAGGTEEVATIRVSGVGNNISFEEKKKVLIQRQGNGTFVQTDKPLYTPGQQVYFRIVTMDSNFVPVNDKYSMVELQDPNSNRIAQWLEVVPEQGIVDLSFQLAPEAMLGTYTVAVAEGKTFGTFSVEEYVLPKFKVEVVEPKELSTVQESFLVKICCRYTYGKPMLGAVQVSVCQKANTYWYREVEREQLPDKCRNLSGQTDKTGCFSAPVDMATFDLIGYAYSHQINIVATVVEEGTGVEANATQNIYISPQMGSMTFEDTSNFYHPNFPFSGKIRVRGHDDSFLKNHLVFLVIYGTNGTFNQTLVTDNNGLAPFTLETSGWNGTDVSLEGKFQMEDLVYNPEQVPRYYQNAYLHLRPFYSTTRSFLGIHRLNGPLKCGQPQEVLVDYYIDPADASPDQEISFSYYLIGKGSLVMEGQKHLNSKKKGLKASFSLSLTFTSRLAPDPSLVIYAIFPSGGVVADKIQFSVEMCFDNQVSLGFSPSQQLPGAEVELQLQAAPGSLCALRAVDESVLLLRPDRELSNRSVYGMFPFWYGHYPYQVAEYDQCPVSGPWDFPQPLIDPMPQGHSSQRSIIWRPSFSEGTDLFSFFRDVGLKILSNAKIKKPVDCSHRSPEYSTAMGAGGGHPEAFESSTPLHQAEDSQVRQYFPETWLWDLFPIGNSGKEAVHVTVPDAITEWKAMSFCTSQSRGFGLSPTVGLTAFKPFFVDLTLPYSVVRGESFRLTATIFNYLKDCIRVQTDLAKSHEYQLESWADSQTSSCLCADDAKTHHWNITAVKLGHINFTISTKILDSNEPCGGQKGFVPQKGRSDTLIKPVLVKPEGVLVEKTHSSLLCPKGKVASESVSLELPVDIVPDSTKAYVTVLGDIMGTALQNLDGLVQMPSGCGEQNMVLFAPIIYVLQYLEKAGLLTEEIRSRAVGFLEIGYQKELMYKHSNGSYSAFGERDGNGNTWLTAFVTKCFGQAQKFIFIDPKNIQDALKWMAGNQLPSGCYANVGNLLHTAMKGGVDDEVSLTAYVTAALLEMGKDVDDPMVSQGLRCLKNSATSTTNLYTQALLAYIFSLAGEMDIRNILLKQLDQQAIISGESIYWSQKPTPSSNASPWSEPAAVDVELTAYALLAQLTKPSLTQKEIAKATSIVAWLAKQHNAYGGFSSTQDTVVALQALAKYATTAYMPSEEINLVVKSTENFQRTFNIQSVNRLVFQQDTLPNVPGMYTLEASGQGCVYVQTVLRYNILPPTNMKTFSLSVEIGKARCEQPTSPRSLTLTIHTSYVGSRSSSNMAIVEVKMLSGFSPMEGTNQLLLQQPLVKKVEFGTDTLNIYLDELIKNTQTYTFTISQSVLVTNLKPATIKVYDYYLPDEQATIQYSDPCE
modifications: internal thiol ester in which Gln-973 participates
On to B1, for which the binding result is “binds” in experiment [1]; “binds” with Cathepsin G (CatG); “no binding” in experiment [2]; “binds” in experiment [3]; “binds” in experiment [4]; “no binding (condition: with 50 mM BAPN)” in experiment [5].

B2: A2ML1 H1084N mutant (natural protein, human, UniProt A8K2U0-1 18-1454, looked up)
chain: B1 chain with H1067N
modifications: internal thiol ester in which Gln-973 participates
Regarding B2, the binding result with Cathepsin G (CatG) is “binds”; in experiment [3], “binds”; in experiment [4], “binds”; in experiment [5], “no binding (condition: with 50 mM BAPN)”.

B3: Human α2-macroglobulin (A2M), wild type, purified from plasma (protein, UniProt P01023 24-1474)
chain: SVSGKPQYMVLVPSLLHTETTEKGCVLLSYLNETVTVSASLESVRGNRSLFTDLEAENDVLHCVAFAVPKSSSNEEVMFLTVQVKGPTQEFKKRTTVMVKNEDSLVFVQTDKSIYKPGQTVKFRVVSMDENFHPLNELIPLVYIQDPKGNRIAQWQSFQLEGGLKQFSFPLSSEPFQGSYKVVVQKKSGGRTEHPFTVEEFVLPKFEVQVTVPKIITILEEEMNVSVCGLYTYGKPVPGHVTVSICRKYSDASDCHGEDSQAFCEKFSGQLNSHGCFYQQVKTKVFQLKRKEYEMKLHTEAQIQEEGTVVELTGRQSSEITRTITKLSFVKVDSHFRQGIPFFGQVRLVDGKGVPIPNKVIFIRGNEANYYSNATTDEHGLVQFSINTTNVMGTSLTVRVNYKDRSPCYGYQWVSEEHEEAHHTAYLVFSPSKSFVHLEPMSHELPCGHTQTVQAHYILNGGTLLGLKKLSFYYLIMAKGGIVRTGTHGLLVKQEDMKGHFSISIPVKSDIAPVARLLIYAVLPTGDVIGDSAKYDVENCLANKVDLSFSPSQSLPASHAHLRVTAAPQSVCALRAVDQSVLLMKPDAELSASSVYNLLPEKDLTGFPGPLNDQDNEDCINRHNVYINGITYTPVSSTNEKDMYSFLEDMGLKAFTNSKIRKPKMCPQLQQYEMHGPEGLRVGFYESDVMGRGHARLVHVEEPHTETVRKYFPETWIWDLVVVNSAGVAEVGVTVPDTITEWKAGAFCLSEDAGLGISSTASLRAFQPFFVELTMPYSVIRGEAFTLKATVLNYLPKCIRVSVQLEASPAFLAVPVEKEQAPHCICANGRQTVSWAVTPKSLGNVNFTVSAEALESQELCGTEVPSVPEHGRKDTVIKPLLVEPEGLEKETTFNSLLCPSGGEVSEELSLKLPPNVVEESARASVSVLGDILGSAMQNTQNLLQMPYGCGEQNMVLFAPNIYVLDYLNETQQLTPEIKSKAIGYLNTGYQRQLNYKHYDGSYSTFGERYGRNQGNTWLTAFVLKTFAQARAYIFIDEAHITQALIWLSQRQKDNGCFRSSGSLLNNAIKGGVEDEVTLSAYITIALLEIPLTVTHPVVRNALFCLESAWKTAQEGDHGSHVYTKALLAYAFALAGNQDKRKEVLKSLNEEAVKKDNSVHWERPQKPKAPVGHFYEPQAPSAEVEMTSYVLLAYLTAQPAPTSEDLTSATNIVKWITKQQNAQGGFSSTQDTVVALHALSKYGAATFTRTGKAAQVTIQSSGTFSSKFQVDNNNRLLLQQVSLPELPGEYSMKVTGEGCVYLQTSLKYNILPEKEEFPFALGVQTLPQTCDEPKAHTSFQISLSVSYTGSRSASNMAIVDVKMVSGFIPLKPTVKMLERSNHVSRTEVSSNHVLIYLDKVSNQTLSLFFTVLQDVPVRDLKPAIVKVYDYYETDEFAIAEYNAPCSKDLGNA
modifications: internal thiol ester in which Gln-975 participates
Turning to B3, in experiment [6], the binding entry was “binds”.
